The supplement of paper PMC10849652
The other results are listed elsewhere or left out.

Protein sequences, listed by entry. Tags and fused reporters are not part of them. Lines headed by an entry give the natural chain unless they say otherwise; changes in a name come on top.
UniProt Q6P3S1: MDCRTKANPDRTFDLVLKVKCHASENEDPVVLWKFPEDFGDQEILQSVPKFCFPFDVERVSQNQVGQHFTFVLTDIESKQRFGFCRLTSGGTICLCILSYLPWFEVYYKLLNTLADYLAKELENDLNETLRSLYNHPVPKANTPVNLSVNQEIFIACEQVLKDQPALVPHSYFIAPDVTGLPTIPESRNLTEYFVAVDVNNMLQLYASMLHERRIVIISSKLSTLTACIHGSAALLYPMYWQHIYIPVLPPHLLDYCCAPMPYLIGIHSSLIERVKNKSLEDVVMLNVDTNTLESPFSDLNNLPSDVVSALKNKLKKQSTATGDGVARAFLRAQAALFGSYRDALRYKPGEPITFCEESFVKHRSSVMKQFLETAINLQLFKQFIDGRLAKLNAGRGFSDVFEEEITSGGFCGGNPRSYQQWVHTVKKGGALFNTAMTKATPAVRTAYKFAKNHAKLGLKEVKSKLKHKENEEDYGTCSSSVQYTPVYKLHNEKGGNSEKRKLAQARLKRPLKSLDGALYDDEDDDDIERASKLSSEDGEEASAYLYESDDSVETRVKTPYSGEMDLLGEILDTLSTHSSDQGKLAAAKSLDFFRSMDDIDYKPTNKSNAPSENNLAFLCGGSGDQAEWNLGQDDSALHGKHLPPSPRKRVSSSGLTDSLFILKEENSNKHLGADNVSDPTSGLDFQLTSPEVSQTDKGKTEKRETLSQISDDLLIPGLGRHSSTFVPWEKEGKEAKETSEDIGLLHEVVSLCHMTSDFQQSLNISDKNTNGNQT
UniProt P0CG12: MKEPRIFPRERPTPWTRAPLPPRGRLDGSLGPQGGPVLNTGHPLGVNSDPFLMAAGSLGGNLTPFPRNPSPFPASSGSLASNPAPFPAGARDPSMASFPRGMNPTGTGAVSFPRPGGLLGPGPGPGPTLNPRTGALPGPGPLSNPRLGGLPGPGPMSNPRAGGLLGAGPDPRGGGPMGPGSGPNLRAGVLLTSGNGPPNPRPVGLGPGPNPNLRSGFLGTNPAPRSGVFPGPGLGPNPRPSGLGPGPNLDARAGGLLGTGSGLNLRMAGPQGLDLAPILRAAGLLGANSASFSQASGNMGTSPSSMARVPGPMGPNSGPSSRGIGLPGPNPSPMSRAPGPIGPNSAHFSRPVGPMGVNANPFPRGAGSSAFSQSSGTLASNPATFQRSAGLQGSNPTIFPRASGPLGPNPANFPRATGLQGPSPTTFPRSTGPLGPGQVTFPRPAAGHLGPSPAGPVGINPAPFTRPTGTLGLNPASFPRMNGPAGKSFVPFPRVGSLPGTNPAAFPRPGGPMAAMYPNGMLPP
UniProt Q8NHQ9: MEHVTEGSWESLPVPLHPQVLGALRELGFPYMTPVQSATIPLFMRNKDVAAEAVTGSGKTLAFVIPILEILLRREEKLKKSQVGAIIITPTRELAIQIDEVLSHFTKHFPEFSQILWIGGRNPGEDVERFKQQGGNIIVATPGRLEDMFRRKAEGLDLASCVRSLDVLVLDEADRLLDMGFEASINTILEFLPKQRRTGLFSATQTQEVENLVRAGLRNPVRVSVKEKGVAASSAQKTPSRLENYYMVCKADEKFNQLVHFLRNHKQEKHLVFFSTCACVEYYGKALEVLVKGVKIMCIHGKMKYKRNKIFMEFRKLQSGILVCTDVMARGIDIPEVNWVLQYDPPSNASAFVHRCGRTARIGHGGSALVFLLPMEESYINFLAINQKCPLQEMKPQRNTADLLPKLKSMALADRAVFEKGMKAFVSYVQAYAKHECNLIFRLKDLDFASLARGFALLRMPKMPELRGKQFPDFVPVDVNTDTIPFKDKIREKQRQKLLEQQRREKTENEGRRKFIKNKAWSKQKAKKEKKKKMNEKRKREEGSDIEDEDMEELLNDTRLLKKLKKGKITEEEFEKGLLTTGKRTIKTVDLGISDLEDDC
UniProt Q9BSY9: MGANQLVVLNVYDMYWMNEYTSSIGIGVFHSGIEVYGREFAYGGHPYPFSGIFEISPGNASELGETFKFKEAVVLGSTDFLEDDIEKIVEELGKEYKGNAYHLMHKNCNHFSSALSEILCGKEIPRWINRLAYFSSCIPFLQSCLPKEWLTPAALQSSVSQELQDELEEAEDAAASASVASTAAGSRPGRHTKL
UniProt Q08495: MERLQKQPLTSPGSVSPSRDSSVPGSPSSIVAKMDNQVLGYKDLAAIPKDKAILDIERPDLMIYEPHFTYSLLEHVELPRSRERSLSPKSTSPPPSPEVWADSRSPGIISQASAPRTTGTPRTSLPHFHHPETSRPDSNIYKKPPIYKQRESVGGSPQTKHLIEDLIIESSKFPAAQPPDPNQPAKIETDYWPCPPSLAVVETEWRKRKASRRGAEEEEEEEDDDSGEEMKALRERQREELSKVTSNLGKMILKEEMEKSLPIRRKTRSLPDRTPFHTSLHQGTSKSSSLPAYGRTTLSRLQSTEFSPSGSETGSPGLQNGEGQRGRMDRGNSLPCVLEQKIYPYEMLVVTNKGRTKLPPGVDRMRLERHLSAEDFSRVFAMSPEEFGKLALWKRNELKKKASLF
UniProt Q9NUI1: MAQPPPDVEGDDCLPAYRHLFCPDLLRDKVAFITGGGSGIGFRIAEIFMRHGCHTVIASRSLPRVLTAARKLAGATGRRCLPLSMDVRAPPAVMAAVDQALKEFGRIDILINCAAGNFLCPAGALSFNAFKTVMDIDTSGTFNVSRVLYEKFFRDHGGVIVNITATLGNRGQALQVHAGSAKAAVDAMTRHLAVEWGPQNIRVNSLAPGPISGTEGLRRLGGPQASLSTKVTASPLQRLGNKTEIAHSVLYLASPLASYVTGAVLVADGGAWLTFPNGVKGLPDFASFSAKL
UniProt Q9UHI6: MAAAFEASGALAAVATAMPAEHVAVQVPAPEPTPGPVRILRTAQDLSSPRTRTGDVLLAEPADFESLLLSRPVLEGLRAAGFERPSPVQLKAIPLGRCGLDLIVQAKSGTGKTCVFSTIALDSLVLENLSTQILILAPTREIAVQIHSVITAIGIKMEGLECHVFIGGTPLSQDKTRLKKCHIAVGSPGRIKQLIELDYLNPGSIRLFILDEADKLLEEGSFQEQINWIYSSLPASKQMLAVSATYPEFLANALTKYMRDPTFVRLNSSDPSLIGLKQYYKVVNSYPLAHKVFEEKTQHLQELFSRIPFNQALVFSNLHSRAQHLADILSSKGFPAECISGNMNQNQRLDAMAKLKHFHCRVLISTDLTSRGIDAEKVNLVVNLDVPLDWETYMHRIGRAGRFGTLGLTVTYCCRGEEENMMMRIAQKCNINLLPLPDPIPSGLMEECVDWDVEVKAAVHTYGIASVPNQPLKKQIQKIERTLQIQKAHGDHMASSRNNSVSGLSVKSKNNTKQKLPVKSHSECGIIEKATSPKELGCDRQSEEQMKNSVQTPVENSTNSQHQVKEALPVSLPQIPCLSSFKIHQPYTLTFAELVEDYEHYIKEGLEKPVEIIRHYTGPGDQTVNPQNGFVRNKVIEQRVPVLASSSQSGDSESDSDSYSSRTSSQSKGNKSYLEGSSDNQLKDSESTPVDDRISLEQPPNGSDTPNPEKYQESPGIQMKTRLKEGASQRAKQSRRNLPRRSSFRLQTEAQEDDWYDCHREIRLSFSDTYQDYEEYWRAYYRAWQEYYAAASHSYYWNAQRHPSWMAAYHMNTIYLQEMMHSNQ
UniProt Q86XP3: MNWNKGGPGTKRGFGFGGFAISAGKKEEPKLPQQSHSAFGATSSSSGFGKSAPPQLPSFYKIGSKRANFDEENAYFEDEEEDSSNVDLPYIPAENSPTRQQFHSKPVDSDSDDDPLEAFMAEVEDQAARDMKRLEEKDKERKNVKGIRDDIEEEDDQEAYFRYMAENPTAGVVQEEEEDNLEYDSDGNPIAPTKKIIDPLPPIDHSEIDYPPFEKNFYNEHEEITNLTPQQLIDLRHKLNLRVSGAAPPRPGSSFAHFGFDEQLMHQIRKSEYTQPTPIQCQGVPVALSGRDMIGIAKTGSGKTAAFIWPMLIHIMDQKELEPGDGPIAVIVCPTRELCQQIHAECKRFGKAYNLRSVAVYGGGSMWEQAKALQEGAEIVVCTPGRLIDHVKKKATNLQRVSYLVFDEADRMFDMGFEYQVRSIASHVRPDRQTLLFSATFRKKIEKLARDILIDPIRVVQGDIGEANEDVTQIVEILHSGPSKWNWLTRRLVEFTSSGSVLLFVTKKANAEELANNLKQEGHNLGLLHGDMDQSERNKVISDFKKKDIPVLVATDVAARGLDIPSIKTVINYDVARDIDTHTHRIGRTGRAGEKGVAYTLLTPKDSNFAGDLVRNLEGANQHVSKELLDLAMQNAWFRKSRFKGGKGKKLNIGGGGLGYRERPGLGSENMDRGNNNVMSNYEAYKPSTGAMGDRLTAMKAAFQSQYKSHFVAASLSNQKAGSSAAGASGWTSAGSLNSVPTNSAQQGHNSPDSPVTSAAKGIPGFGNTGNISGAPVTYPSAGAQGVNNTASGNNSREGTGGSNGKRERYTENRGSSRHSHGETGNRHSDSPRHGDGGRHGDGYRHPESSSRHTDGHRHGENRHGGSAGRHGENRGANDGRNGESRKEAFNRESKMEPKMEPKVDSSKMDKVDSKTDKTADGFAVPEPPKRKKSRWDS
UniProt Q96FC9: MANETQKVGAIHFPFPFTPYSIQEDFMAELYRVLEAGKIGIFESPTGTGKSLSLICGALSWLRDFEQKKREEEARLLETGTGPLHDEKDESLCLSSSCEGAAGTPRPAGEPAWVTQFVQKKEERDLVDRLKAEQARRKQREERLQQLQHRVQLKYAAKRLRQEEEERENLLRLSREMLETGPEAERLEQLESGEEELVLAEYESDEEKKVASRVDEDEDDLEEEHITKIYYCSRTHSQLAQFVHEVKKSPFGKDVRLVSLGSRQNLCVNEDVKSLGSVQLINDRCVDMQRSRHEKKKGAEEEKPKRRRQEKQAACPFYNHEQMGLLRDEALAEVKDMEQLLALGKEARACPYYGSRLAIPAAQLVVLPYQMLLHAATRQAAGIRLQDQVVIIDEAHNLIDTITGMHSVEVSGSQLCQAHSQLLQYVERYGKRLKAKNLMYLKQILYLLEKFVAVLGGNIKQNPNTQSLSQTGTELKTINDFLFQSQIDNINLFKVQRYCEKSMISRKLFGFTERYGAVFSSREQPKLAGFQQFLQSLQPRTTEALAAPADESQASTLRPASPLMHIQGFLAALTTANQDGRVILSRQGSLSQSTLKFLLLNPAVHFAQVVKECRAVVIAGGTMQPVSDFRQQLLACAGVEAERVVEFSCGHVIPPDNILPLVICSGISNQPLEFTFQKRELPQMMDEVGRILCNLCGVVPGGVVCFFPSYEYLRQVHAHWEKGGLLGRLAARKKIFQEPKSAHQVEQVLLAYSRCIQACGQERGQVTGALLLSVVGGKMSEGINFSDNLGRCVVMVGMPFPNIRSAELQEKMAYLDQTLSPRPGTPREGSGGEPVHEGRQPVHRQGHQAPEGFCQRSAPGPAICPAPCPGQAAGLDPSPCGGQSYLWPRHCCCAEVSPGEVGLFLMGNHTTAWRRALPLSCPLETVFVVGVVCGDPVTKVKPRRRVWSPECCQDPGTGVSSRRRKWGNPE
UniProt Q9Y2R4: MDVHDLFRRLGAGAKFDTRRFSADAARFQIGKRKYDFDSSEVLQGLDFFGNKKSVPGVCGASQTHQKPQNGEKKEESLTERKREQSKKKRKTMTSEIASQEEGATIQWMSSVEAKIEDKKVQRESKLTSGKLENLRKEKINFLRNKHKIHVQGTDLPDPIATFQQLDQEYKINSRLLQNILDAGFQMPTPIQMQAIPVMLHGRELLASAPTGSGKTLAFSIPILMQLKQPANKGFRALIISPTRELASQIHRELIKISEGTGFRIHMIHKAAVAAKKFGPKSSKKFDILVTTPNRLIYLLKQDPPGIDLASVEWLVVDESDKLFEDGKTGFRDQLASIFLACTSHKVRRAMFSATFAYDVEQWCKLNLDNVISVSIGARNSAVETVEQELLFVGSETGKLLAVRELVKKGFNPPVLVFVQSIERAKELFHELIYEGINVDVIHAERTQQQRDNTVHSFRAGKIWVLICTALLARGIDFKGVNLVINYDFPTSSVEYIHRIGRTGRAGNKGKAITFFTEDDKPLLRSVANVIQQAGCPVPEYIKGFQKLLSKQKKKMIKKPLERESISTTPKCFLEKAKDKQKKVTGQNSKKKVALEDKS
UniProt Q9H0S4: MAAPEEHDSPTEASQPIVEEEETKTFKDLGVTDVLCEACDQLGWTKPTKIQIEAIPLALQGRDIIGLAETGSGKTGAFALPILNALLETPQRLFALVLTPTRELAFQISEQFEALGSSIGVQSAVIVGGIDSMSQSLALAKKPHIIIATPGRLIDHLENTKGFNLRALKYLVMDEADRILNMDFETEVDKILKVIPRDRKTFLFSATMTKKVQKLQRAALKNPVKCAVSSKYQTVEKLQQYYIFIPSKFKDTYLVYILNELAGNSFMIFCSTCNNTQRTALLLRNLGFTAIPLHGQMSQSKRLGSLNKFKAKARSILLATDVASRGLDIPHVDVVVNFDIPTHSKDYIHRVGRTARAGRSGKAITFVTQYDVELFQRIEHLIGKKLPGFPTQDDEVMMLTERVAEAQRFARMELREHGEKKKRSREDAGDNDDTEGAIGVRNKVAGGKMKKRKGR

Each target was assayed with C1=CC=C(C=C1)[C@H](COC2=CC3=C(C=C2)NC(=O)N3)NC(=O)C4=CC=CN(C4=O)CC5=CC(=C(C=C5)F)F (assay: log2 fold change, soluble protein after heating vs DMSO (PISA); higher = thermal stabilisation; K562 cells, 10 uM, 30 min; active = over 0.2 and 3.5 SD of the protein, either way, in both replicates (recomputed)).
Procedure, shortened: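 Aliquots of K562 cells (2×10^6 cells/mL) treated with 10 μM compound for 30 min were heated for 3 min over 48°C-58°C. After pooling and extraction in PBS with 0.5% NP-40 at 4°C, soluble protein from a 21,000xg, 90 min spin was quantified by TMTpro 16plex LC-MS/MS with channel sums equalised. Thermal stability is expressed against control samples, from duplicates, as a log2 fold change.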
DENND1B (UniProt Q6P3S1) was tested, and the log2 fold change was inactive: -0.075. For DENND1A isoform 6 (UniProt Q8TEH3), the log2 fold change was inactive: 0.152. With DERPC (UniProt P0CG12) the log2 fold change was inactive: 0. With DDX55 (UniProt Q8NHQ9) the log2 fold change was inactive: 0.131. DGKE (UniProt P52429) was tested, and the log2 fold change was inactive: -0.059. DESI2 (UniProt Q9BSY9) was tested, and the log2 fold change was inactive: -0.051. DMTN isoform 2 (UniProt Q08495) was tested, and the log2 fold change was inactive: 0.044. In the case of DECR2 (UniProt Q9NUI1), the log2 fold change is reported as inactive: -0.105. In the case of DDX20 (UniProt Q9UHI6), the log2 fold change is reported as inactive: 0.02. DDX11L8 (UniProt A8MPP1) was tested, and the log2 fold change was inactive: 0.02. With DHTKD1 (UniProt Q96HY7) the log2 fold change was inactive: -0.136. In the case of DDX42 (UniProt Q86XP3), the log2 fold change is reported as inactive: -0.231. DDX11 (UniProt Q96FC9) was tested, and the log2 fold change was inactive: -0.068. In the case of DDX52 (UniProt Q9Y2R4), the log2 fold change is reported as inactive: 0.273. With DDX47 (UniProt Q9H0S4) the log2 fold change was inactive: -0.008. DNA2 (UniProt P51530) was tested, and the log2 fold change was inactive: 0.211. For DMKN (UniProt Q6E0U4), the log2 fold change was inactive: -0.289. DGKA (UniProt P23743) was tested, and the log2 fold change was inactive: -0.1. With DEF8 (UniProt Q6ZN54) the log2 fold change was inactive: -0.069. DHRSX (UniProt Q8N5I4) was tested, and the log2 fold change was inactive: -0.077.
